# Laboratory results: PubChem BioAssay AID1159584 (Peter MacCallum Cancer Centre, 2016)
# Assay: 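Knock-downs that harm CDH1-null cells more than parental MCF10A cells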 (primary screen)
# System: human MCF10A breast epithelial cells, parental and CDH1-null
# Knock-down reagent: siRNA against human genes
# Measurement: 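ATP luminescence (CellTiter-Glo) viability per line relative to mean mock wells over all plates, and the ratio of CDH1-null to parental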
# Reading the numbers: CDH1-null / parental viability ratio: higher = CDH1-null cells survive relatively better than parental; CDH1-null viability vs mock: higher = more viable CDH1-null cells
# The whole screen tested about 18,000 reagents; below is a random part of them. Reagents against one gene are numbered here. Further read-outs or replicates are left out here. Not given: the amount of reagent, the time to read-out.
The opening 3 entries as a preview:
gene symbol,siRNA no.,CDH1-null / parental viability ratio,CDH1-null viability vs mock (fraction of mock)
HECW2,1,1.19,0.62
TMEM40,1,0.87,0.8
FOXQ1,1,1.11,0.82

The list itself, from the first entry:
gene symbol,siRNA no.,CDH1-null / parental viability ratio,CDH1-null viability vs mock (fraction of mock)
HECW2,1,1.19,0.62
TMEM40,1,0.87,0.8
FOXQ1,1,1.11,0.82
SRFBP1,1,1.22,0.83
ZNF793,1,0.85,0.7
UQCRC2,1,1.19,0.88
RNF17,1,0.72,0.58
MMP9,1,1.17,1.1
TMEM204,1,1.05,0.85
FOXP2,1,1.22,0.9
PLA2G5,1,0.99,0.97
IRX2,1,0.96,0.81
GKN2,1,0.94,0.89
ACYP2,1,1.15,1.08
FAM117A,1,1.35,0.84
PCDH20,1,0.93,1.12
ATPAF2,1,0.99,0.88
HNRNPL,1,1.04,0.5
PCDHA9,1,1.03,0.72
STK31,1,0.91,0.74
NR6A1,1,0.87,0.85
PGCKA1,1,0.94,0.75
SLC9A7,1,0.88,0.91
ACTL6B,1,0.91,0.86
MOB1A,1,0.84,0.72
SPRED1,1,1.3,1.04
CDK5R2,1,1.04,0.79
NSUN5P2,1,0.91,0.62
ZNF101,1,1.03,0.92
SAFB2,1,1.25,0.84
ZNF429,1,1,0.8
CYP4B1,1,1.45,0.93
EIF4EBP3,1,0.81,0.52
KIT,1,0.96,0.82
NAT8,1,0.97,0.74
AMY2A,1,0.84,0.82
ZFPM1,1,1.19,0.92
INPP4A,1,1.52,0.67
ZMYND12,1,1.09,0.93
LDHA,1,1.01,0.94
GRIN2A,1,1.28,1.1
ANXA13,1,1.01,0.83
PLRG1,1,1.07,0.49
HOXD10,1,0.94,0.66
ZNF148,1,0.85,0.68
CPD,1,1.23,0.86
KLRA1P,1,0.9,0.7
TALDO1,1,1.02,0.88
ZMYM4,1,1.21,0.68
NKAIN3,1,1.07,1.08
ENPP5,1,0.95,0.74
APRG1,1,1.03,0.62
FKBP8,1,1.06,0.7
SSPN,1,0.95,0.57
ARHGAP27,1,1.01,0.79
ARHGAP27,2,0.88,0.8
RHOG,1,1.04,1.02
RABGGTA,1,1.42,0.88
IFNA1,1,1.45,0.93
EMCN,1,1.27,1.32
CHPT1,1,0.83,0.68
HPRT1,1,1.04,0.5
NUP93,1,3.4,0.68
ODF4,1,0.82,0.59
FOXM1,1,1.11,0.78
SPRR1B,1,0.94,0.44
PPP1R26,1,0.97,0.62
WNT9A,1,0.95,0.8
FGD5,1,1.2,0.78
KRTAP10-11,1,0.95,0.82
ABCC11,1,1.01,1.02
RUSC1-AS1,1,0.97,0.93
DEFB121,1,1.47,0.56
ADRA2B,1,1.28,0.82
VNN1,1,0.68,0.6
CYP2F1,1,0.87,0.94
UBXN2B,1,1.08,0.98
FREM2,1,1.12,0.94
TAS2R9,1,1.14,0.5
GEMIN5,1,0.76,0.68
SUB1,1,0.86,0.76
CHRD,1,0.95,0.57
PCK1,1,1.13,0.85
SAMD12,1,0.89,0.84
WDPCP,1,0.92,0.84
RPS13,1,1.81,0.38
EFEMP1,1,0.95,1.01
